Test results reported in PMC4044952.
No constants are given. Whether binding was seen depends on the method and setting. In cells and extracts the contact can be indirect. Some binding calls cover weakened binding; strength is not graded here. Where a sequence is shown, tags or fusion partners need not be part of it.

T1: Drosophila MUL1-GFP (Mitochondrial ubiquitin ligase 1, CG1134, fused to GFP) (Drosophila) (UniProt Q9VZJ9)
T1 sequence: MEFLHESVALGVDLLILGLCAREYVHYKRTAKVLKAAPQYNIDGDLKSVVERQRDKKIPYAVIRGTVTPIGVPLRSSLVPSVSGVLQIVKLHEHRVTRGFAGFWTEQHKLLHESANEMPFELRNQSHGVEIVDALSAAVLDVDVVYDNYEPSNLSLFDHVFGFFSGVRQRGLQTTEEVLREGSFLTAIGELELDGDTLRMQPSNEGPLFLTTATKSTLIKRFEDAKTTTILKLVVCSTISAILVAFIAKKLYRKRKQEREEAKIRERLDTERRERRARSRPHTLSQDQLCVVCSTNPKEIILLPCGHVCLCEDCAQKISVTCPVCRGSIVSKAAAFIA

T2: Drosophila HA-Parkin (Drosophila) (UniProt Q7KTX7)
T2 sequence: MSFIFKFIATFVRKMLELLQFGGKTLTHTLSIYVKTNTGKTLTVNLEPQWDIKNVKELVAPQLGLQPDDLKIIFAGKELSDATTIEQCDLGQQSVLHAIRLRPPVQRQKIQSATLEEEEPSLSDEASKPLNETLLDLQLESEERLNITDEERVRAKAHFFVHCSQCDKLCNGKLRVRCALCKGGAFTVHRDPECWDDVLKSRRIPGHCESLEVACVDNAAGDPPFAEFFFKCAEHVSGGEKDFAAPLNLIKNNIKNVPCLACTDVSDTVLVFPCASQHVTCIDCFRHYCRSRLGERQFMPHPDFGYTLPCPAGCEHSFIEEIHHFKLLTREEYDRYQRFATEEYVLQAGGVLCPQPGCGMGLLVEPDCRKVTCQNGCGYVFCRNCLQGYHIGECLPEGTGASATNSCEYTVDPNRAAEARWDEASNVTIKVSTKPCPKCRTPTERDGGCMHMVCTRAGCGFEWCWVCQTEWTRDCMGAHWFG

T3: Drosophila Mfn-myc (Mitofusin, also called Marf, CG3869, fused to a myc tag) (Drosophila) (UniProt Q7YU24)
T3 sequence: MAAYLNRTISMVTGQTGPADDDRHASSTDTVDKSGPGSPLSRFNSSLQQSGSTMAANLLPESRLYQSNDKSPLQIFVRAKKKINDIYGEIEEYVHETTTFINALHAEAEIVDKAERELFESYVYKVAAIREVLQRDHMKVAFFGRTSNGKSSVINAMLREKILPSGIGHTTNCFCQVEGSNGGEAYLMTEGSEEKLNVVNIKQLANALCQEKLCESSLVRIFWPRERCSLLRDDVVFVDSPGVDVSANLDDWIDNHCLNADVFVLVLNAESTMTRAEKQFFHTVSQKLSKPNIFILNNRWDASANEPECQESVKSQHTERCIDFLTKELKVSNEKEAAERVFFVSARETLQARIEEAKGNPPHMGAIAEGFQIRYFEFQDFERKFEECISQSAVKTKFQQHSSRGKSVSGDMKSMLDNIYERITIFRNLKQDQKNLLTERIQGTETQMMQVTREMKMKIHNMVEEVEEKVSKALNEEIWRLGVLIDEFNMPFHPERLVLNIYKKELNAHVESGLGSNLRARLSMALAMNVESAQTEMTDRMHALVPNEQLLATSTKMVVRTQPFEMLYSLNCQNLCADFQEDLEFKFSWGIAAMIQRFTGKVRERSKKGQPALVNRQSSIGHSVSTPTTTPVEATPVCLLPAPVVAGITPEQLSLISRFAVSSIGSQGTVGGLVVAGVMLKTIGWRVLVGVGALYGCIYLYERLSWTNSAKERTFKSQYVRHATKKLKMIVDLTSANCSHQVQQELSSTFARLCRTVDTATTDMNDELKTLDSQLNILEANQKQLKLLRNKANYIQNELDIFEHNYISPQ


Columns and labels:
Assay in all cases: co-IP; S2 cells transfected with the indicated constructs, lysed in RIPA buffer with protease inhibitors; immunoprecipitation with Dynabeads and antibodies to Myc or GFP (anti-HA also listed); Western blots probed with antibodies to GFP or Myc; input 2% of lysate
[1] = biological target: T1, Drosophila MUL1-GFP (Mitochondrial ubiquitin ligase 1, CG1134, fused to GFP) (Drosophila)
[2] = biological target: T2, Drosophila HA-Parkin (Drosophila)
[3] = biological target: T3, Drosophila Mfn-myc (Mitofusin, also called Marf, CG3869, fused to a myc tag) (Drosophila)

binding [1] | binding [2] | binding [3] | Binder
binds | binds |  | Drosophila Mfn-myc (Mitofusin, also called Marf, CG3869, fused to a myc tag) (protein, UniProt Q7YU24 1-810) MAAYLNRTISMVTGQTGPADDDRHASSTDTVDKSGPGSPLSRFNSSLQQSGSTMAANLLPESRLYQSNDKSPLQIFVRAKKKINDIYGEIEEYVHETTTFINALHAEAEIVDKAERELFESYVYKVAAIREVLQRDHMKVAFFGRTSNGKSSVINAMLREKILPSGIGHTTNCFCQVEGSNGGEAYLMTEGSEEKLNVVNIKQLANALCQEKLCESSLVRIFWPRERCSLLRDDVVFVDSPGVDVSANLDDWIDNHCLNADVFVLVLNAESTMTRAEKQFFHTVSQKLSKPNIFILNNRWDASANEPECQESVKSQHTERCIDFLTKELKVSNEKEAAERVFFVSARETLQARIEEAKGNPPHMGAIAEGFQIRYFEFQDFERKFEECISQSAVKTKFQQHSSRGKSVSGDMKSMLDNIYERITIFRNLKQDQKNLLTERIQGTETQMMQVTREMKMKIHNMVEEVEEKVSKALNEEIWRLGVLIDEFNMPFHPERLVLNIYKKELNAHVESGLGSNLRARLSMALAMNVESAQTEMTDRMHALVPNEQLLATSTKMVVRTQPFEMLYSLNCQNLCADFQEDLEFKFSWGIAAMIQRFTGKVRERSKKGQPALVNRQSSIGHSVSTPTTTPVEATPVCLLPAPVVAGITPEQLSLISRFAVSSIGSQGTVGGLVVAGVMLKTIGWRVLVGVGALYGCIYLYERLSWTNSAKERTFKSQYVRHATKKLKMIVDLTSANCSHQVQQELSSTFARLCRTVDTATTDMNDELKTLDSQLNILEANQKQLKLLRNKANYIQNELDIFEHNYISPQ
 |  | binds | Drosophila MUL1-GFP (Mitochondrial ubiquitin ligase 1, CG1134, fused to GFP) (protein, UniProt Q9VZJ9 1-338) MEFLHESVALGVDLLILGLCAREYVHYKRTAKVLKAAPQYNIDGDLKSVVERQRDKKIPYAVIRGTVTPIGVPLRSSLVPSVSGVLQIVKLHEHRVTRGFAGFWTEQHKLLHESANEMPFELRNQSHGVEIVDALSAAVLDVDVVYDNYEPSNLSLFDHVFGFFSGVRQRGLQTTEEVLREGSFLTAIGELELDGDTLRMQPSNEGPLFLTTATKSTLIKRFEDAKTTTILKLVVCSTISAILVAFIAKKLYRKRKQEREEAKIRERLDTERRERRARSRPHTLSQDQLCVVCSTNPKEIILLPCGHVCLCEDCAQKISVTCPVCRGSIVSKAAAFIA
